The record followed here is PMC10562424.

Chains of the proteins cited; added tags and fusions are not shown.
UniProt Q8N371: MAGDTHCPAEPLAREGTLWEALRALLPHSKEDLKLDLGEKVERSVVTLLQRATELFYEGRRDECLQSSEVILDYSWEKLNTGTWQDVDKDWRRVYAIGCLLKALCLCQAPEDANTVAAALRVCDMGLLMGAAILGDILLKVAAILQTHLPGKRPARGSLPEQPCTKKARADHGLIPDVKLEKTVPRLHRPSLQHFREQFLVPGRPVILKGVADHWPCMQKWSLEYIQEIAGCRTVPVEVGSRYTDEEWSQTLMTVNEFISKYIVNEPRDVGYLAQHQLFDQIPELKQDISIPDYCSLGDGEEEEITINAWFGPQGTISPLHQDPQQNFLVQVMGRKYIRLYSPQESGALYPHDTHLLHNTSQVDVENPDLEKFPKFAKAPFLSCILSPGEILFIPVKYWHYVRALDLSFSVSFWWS

Results are given in words; binding and its absence hold for the method and conditions named. In cells and extracts the contact can be indirect. Some entries that bind do so weakly or less than the wild type.

Test [1] concerns the target EGFR expressed in 293T cells (co-IP with HUWE1) (human) (UniProt P00533). Nature of the test: co-IP; 293T cells; anti-Flag immunoprecipitation, coprecipitated proteins detected by Western blot.
The target in test [2] is JMJD5 expressed in 293T cells (co-IP with HUWE1) (human) (UniProt Q8N371). Described as above.

With “HUWE1 C-terminus (3551-4370 truncate containing HECT domain) (from UniProt Q7Z6Z7 3551-4370) (domain or fragment)”, the binding entry in test [1] and in test [2] was “binds” in each case.

Turning to “Full-length HUWE1 in 293T cells (from UniProt Q7Z6Z7 1-4374) (enzyme)”, the binding entry in test [1] and in test [2] was “binds” in each case.
